According to the supplement of paper PMC12067093, “Discovery and optimisation of a covalent ligand for TRIM25 and its application to targeted protein ubiquitination” (Chemical Science, 2025):
The list shows a part of the results.

The chains behind the UniProt entries cited, without tags or fusion partners. Where a name states a change or a piece, a line headed by the entry shows the natural chain unless it says otherwise.
UniProt P08240: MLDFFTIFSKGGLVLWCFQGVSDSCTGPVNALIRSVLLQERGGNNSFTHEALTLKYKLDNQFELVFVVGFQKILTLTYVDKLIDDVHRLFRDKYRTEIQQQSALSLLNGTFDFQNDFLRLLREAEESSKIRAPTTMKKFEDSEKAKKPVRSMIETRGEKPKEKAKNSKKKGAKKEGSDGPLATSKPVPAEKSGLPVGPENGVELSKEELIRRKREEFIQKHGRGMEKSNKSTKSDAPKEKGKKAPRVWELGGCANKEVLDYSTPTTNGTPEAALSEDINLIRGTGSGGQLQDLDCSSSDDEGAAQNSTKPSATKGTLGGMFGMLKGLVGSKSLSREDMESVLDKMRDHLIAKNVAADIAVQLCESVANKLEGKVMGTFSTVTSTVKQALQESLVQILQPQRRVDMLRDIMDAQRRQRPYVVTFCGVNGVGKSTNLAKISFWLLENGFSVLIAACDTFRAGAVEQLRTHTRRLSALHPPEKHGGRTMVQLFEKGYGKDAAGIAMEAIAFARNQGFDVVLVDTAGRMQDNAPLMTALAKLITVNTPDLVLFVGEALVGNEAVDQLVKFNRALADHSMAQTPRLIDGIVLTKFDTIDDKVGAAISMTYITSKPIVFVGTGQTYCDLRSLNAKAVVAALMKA
UniProt Q15831: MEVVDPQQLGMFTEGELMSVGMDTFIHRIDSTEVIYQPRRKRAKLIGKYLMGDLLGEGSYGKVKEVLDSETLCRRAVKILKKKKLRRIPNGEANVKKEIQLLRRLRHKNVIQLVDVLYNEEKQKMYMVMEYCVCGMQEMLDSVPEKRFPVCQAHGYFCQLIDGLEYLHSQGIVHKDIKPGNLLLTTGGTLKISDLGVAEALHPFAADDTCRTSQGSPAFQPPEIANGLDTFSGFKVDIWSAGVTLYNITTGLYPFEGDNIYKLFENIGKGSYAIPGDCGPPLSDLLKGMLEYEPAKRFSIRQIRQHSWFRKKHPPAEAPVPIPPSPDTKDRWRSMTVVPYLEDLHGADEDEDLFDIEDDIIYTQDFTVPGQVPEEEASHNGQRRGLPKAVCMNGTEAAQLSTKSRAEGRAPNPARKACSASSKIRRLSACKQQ
UniProt O00186: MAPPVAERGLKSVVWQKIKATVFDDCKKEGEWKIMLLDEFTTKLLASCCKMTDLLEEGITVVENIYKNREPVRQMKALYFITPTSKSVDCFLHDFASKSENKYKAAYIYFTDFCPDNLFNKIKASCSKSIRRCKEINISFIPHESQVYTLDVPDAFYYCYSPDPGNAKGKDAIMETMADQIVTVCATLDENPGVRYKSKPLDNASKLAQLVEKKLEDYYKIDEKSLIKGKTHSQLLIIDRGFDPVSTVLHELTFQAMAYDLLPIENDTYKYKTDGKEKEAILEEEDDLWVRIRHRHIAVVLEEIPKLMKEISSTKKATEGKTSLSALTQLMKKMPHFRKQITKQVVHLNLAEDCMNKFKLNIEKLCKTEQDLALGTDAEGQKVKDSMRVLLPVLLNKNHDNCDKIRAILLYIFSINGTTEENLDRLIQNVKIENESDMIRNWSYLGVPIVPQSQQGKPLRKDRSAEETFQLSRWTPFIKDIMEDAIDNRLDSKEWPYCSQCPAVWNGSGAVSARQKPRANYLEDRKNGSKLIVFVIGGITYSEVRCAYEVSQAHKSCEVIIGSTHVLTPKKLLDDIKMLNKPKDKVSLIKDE
UniProt Q9UNE7: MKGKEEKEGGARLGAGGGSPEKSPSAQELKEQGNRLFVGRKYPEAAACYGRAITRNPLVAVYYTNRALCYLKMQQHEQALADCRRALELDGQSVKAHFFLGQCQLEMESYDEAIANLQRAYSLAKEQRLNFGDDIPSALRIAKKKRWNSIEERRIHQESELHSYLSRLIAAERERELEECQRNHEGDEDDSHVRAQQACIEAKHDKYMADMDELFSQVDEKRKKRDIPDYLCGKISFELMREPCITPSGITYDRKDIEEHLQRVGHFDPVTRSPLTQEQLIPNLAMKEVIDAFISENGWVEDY
UniProt Q8IX01: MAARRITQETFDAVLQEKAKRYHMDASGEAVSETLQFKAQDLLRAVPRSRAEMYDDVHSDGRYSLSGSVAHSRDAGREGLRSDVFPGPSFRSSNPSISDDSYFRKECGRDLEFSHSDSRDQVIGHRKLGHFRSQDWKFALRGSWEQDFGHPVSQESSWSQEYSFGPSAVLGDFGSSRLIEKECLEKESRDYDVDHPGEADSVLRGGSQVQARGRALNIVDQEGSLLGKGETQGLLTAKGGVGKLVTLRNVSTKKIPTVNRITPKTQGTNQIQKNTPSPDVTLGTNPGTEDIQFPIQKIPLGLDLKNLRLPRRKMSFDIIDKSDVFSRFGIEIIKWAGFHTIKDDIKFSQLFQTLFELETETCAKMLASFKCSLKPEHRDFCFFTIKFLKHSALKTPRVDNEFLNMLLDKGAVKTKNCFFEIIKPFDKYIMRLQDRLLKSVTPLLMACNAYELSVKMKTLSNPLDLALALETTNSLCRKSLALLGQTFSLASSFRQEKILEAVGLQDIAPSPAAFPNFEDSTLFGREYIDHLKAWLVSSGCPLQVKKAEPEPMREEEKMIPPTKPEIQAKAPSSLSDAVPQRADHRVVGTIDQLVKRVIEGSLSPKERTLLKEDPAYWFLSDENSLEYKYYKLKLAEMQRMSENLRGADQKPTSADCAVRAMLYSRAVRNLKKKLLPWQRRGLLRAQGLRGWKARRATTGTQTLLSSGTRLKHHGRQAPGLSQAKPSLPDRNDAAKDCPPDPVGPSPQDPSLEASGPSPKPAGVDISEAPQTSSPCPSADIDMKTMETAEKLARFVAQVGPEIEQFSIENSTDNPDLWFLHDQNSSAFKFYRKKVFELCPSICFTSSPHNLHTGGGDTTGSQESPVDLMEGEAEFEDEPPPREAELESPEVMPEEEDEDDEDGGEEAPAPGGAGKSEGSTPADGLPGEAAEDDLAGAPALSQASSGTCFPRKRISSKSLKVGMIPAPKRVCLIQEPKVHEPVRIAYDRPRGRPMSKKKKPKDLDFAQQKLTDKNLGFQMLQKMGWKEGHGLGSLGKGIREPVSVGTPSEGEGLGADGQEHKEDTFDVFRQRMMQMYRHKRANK
UniProt P52630: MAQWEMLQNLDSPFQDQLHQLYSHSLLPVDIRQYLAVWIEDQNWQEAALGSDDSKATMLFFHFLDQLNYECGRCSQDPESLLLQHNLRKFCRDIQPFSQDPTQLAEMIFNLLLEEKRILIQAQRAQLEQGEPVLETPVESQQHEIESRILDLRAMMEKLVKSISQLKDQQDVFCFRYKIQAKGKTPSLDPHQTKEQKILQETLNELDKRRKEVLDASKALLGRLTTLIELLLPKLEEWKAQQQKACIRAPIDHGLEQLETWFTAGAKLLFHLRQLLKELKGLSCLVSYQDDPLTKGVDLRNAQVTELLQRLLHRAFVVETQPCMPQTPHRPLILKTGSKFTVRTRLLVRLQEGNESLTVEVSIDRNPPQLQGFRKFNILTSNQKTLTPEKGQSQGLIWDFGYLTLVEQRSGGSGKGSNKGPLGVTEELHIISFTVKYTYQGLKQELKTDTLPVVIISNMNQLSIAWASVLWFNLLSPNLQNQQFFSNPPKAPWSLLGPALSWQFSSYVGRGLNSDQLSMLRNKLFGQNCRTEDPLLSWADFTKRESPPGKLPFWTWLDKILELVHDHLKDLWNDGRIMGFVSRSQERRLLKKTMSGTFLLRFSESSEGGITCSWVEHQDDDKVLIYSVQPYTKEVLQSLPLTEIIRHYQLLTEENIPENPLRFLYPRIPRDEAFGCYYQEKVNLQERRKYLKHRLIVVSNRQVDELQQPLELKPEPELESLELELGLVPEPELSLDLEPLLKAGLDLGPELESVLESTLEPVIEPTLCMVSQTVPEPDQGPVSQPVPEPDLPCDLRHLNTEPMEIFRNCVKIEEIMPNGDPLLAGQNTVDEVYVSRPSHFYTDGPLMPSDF
UniProt Q8WUJ0: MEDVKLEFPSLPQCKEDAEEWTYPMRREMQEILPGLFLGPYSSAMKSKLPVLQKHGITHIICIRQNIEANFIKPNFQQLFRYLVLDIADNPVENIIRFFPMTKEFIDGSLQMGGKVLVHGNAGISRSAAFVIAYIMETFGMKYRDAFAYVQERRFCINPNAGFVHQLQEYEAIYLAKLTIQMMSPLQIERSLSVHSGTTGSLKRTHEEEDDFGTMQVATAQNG
UniProt Q8N1F8: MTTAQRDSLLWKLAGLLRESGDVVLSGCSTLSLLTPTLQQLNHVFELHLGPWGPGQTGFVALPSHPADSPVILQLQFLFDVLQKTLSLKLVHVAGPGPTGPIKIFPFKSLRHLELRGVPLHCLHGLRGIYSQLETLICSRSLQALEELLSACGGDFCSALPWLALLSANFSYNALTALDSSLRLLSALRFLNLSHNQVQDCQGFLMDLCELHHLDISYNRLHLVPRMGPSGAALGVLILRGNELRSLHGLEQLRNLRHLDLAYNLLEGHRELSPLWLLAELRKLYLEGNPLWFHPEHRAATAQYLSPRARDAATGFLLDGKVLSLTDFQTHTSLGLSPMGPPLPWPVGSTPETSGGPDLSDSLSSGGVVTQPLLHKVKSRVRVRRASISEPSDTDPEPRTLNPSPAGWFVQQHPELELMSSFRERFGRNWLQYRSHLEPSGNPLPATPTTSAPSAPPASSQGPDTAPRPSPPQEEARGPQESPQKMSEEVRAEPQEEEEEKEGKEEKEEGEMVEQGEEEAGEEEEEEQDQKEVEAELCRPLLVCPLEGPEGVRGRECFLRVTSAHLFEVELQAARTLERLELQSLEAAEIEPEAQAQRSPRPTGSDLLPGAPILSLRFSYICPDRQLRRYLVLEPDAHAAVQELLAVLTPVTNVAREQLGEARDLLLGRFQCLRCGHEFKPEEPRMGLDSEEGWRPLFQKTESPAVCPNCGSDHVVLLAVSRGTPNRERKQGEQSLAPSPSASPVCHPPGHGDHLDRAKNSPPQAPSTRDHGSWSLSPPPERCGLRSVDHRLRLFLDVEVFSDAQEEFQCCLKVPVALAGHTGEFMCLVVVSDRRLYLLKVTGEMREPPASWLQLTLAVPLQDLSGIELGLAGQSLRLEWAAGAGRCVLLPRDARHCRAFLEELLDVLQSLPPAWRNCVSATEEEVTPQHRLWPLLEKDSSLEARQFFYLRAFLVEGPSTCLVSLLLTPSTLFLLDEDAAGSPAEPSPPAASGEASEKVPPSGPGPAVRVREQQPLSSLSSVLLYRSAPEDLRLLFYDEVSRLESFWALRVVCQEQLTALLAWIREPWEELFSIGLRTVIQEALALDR
UniProt P31948, whole entry, looked up: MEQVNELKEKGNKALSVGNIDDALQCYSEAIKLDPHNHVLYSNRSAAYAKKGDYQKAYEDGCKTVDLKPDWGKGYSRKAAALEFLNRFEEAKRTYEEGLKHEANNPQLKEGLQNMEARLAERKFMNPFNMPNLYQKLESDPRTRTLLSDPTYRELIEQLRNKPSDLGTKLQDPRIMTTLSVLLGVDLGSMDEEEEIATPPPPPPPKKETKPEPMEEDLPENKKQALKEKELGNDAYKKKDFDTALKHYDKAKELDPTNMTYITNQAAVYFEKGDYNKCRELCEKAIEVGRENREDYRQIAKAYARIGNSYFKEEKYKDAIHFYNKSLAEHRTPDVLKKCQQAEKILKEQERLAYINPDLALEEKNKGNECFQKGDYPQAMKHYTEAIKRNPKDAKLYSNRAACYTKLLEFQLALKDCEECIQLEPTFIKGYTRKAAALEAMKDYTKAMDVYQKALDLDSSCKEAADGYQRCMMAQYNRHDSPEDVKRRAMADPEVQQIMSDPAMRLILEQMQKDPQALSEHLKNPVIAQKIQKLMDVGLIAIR
UniProt P42224: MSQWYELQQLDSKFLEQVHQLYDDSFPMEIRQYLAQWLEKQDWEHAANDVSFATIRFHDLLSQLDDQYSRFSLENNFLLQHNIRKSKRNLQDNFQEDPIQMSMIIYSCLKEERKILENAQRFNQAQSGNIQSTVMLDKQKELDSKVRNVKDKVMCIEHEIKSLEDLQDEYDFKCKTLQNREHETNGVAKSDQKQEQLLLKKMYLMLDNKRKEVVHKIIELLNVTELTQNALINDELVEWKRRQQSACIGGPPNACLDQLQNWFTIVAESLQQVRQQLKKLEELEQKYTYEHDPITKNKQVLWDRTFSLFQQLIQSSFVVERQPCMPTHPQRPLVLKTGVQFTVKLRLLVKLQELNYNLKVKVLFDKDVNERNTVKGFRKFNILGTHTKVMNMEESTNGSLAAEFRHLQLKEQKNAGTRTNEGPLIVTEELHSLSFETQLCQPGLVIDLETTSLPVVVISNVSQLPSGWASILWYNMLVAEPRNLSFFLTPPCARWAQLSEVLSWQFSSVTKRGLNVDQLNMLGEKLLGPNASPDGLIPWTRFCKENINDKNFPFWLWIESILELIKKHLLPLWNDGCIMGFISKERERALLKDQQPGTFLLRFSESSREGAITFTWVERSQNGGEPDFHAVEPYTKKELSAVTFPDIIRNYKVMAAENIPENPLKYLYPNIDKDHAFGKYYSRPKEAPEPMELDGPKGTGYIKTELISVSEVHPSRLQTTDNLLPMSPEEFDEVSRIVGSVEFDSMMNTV

Compound: CC1Cc2ccccc2N1C(=O)C1CCCN(C1)C(=O)CCl (mixture of isomers) [TRIM25 ligand 11 (diastereomer mixture)]
Assay: probe-labelled cysteine peptide fold change vs DMSO (competition) (log2 fold change); higher = less target engagement (more negative = stronger competition)
Conditions: THP-1, incubation time: 4 h
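Further: competitive chemoproteomic profiling in live THP-1 cells with an iodoacetamide desthiobiotin (IA-DTB) probe, comparing probe-labelled peptide intensities in compound-treated cells against DMSO-treated controls.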

| Target | probe-labelled cysteine peptide fold change (10 µM) | probe-labelled cysteine peptide fold change (50 µM) |
| --- | --- | --- |
| SWAP70_Q9UH65_260_GDILLDENCCVESLPDK (UniProt Q9UH65) | 0.173 | 0.0667 |
| SRPRA_P08240_363_NVAADIAVQLCESVANKLEGK (UniProt P08240) | -0.306 | -0.212 |
| STK39_Q9UEW8_450_EASSCAVNLVLR (UniProt Q9UEW8) | 0.0335 | -0.0196 |
| STK16_O75716_174_DLKPTNILLGDEGQPVLMDLGSMNQACIHVEGSR (UniProt O75716) | 0.00578 | -0.202 |
| ST3GAL1_Q11201_59_HRPCTCTHCIGQR (UniProt Q11201) | -0.00263 | 0.0223 |
| SSRP1_Q08945_139_FGGQLLSFDIGDQPVFEIPLSNVSQCTTGK (UniProt Q08945) | 0.26 | -0.0737 |
| STK11_Q15831_418_ACSASSK (UniProt Q15831) | -0.0334 | -0.133 |
| SSB_P05455_18_ICHQIEYYFGDFNLPR (UniProt P05455) | -0.0697 | -0.0312 |
| SSU72_Q9NP77_111_DLFDLILTCEER (UniProt Q9NP77) | -0.0988 | 0.091 |
| STXBP5_Q5T5C0_800_EAISALHFCETFTR (UniProt Q5T5C0) | -0.0919 | 0.0698 |
| SUCLG1_P53597_60_IICQGFTGK (UniProt P53597) | -0.0252 | 0.0159 |
| STXBP3_O00186_354_QVVHLNLAEDCMNK (UniProt O00186) | -0.0145 | -0.0622 |
| SSRP1_Q08945_340_ITVPGNFQGHSGAQCITCSYK (UniProt Q08945) | 0.0436 | 0.0922 |
| STUB1_Q9UNE7_48_KYPEAAACYGR (UniProt Q9UNE7) | -0.0809 | -0.103 |
| SUGP2_Q8IX01_656_GADQKPTSADCAVR (UniProt Q8IX01) | -0.0616 | -0.141 |
| STAT2_P52630_676_DEAFGCYYQEK (UniProt P52630) | 0.0997 | -0.0436 |
| STRADA_Q7RTN6_107_INLEACSNEMVTFLQGELHVSK (UniProt Q7RTN6) | 0.193 | 0.075 |
| SUPT5H_O00267_740_VELHSTCQTISVDR (UniProt O00267) | -0.00805 | -0.21 |
| STT3A_P46977_637_VDREGSPVLLNCLMYK (UniProt P46977) | 0.137 | 0.167 |
| STBD1_O95210_337_WEECSNR (UniProt O95210) | 0.186 | 0.0677 |
| STYX_Q8WUJ0_156_FCINPNAGFVHQLQEYEAIYLAK (UniProt Q8WUJ0) | 0.115 | 0.0113 |

| Target | probe-labelled cysteine peptide fold change (10 µM) | probe-labelled cysteine peptide fold change (50 µM) |
| --- | --- | --- |
| SRSF7_Q16629_119_GHYAYDCHR (UniProt Q16629) | 0.11 | 0.158 |
| STUB1_Q9UNE7_244_EPCITPSGITYDR (UniProt Q9UNE7) | 0.0775 | -0.171 |
| STRBP_Q96SI9_254_SIGTCNRPLGAGEALR (UniProt Q96SI9) | 0.0721 | 0.0402 |
| STAU1_O95793_541_DVESCHDMAALNILK (UniProt O95793) | -0.0554 | -0.471 |
| SUV39H1_O43463_30_LSCPALGISK (UniProt O43463) | -0.0164 | 0.0241 |
| STRN3_Q13033_757_TCVQEITAHR (UniProt Q13033) | 0.196 | 0.0473 |
| SUPT6H_Q7KZ85_939_IQDPLIEFAQVCSSDEDILCLK (UniProt Q7KZ85) | -0.101 | 0.483 |
| STK4_Q13043_80_EISIMQQCDSPHVVK (UniProt Q13043) | -0.0403 | -0.0804 |
| SRRT_Q9BXP5_421_TCSLFMR (UniProt Q9BXP5) | 0.00831 | -0.0116 |
| SRPRA_P08240_424_QRPYVVTFCGVNGVGK (UniProt P08240) | 0.0456 | 0.202 |
| SSBP3_Q9BWW4_80_DTCEHSSEAK (UniProt Q9BWW4) | -0.0926 | -0.432 |
| STK11IP_Q8N1F8_707+710_TESPAVCPNCGSDHVVLLAVSR (UniProt Q8N1F8) | 0.00361 | 0.158 |
| SUPT4H1_P63272_16+19_ACLLCSLVK (UniProt P63272) | 0.0764 | 0.0238 |
| STXBP3_O00186_26_ATVFDDCKK (UniProt O00186) | 0.0345 | -0.0748 |
| STIP1_P31948_339_KCQQAEK (UniProt P31948) | -0.0823 | 0.0155 |
| SRPRA_P08240_424_RQRPYVVTFCGVNGVGK (UniProt P08240) | -0.0263 | 0.0888 |
| SUGT1_Q9Y2Z0_49_ALEQKPDDAQYYCQR (UniProt Q9Y2Z0) | 0.0223 | 0.00988 |
| STAT3_P40763_251_QQIACIGGPPNICLDR (UniProt P40763) | -0.0286 | -0.272 |
| SSX2IP_Q9Y2D8_529_KPHSVSNGSPVCMSK (UniProt Q9Y2D8) | -0.146 | -0.226 |
| STK11IP_Q8N1F8_538_EVEAELCRPLLVCPLEGPEGVR (UniProt Q8N1F8) | 0.113 | -0.0493 |
| SRRT_Q9BXP5_715_WLCPLSGKK (UniProt Q9BXP5) | -0.351 | -0.204 |

Part of the list above, set out differently.
Target	probe-labelled cysteine peptide fold change (10 µM)	probe-labelled cysteine peptide fold change (50 µM)
STUB1_Q9UNE7_244_EPCITPSGITYDR (UniProt Q9UNE7)	0.0775	-0.171
STAT3_P40763_251_QQIACIGGPPNICLDR (UniProt P40763)	-0.0286	-0.272

Further records follow:

| Target | probe-labelled cysteine peptide fold change (10 µM) | probe-labelled cysteine peptide fold change (50 µM) |
| --- | --- | --- |
| STAMBP_O95630_286_GVETCGILCGK (UniProt O95630) | 0.115 | 0.13 |
| STK38_Q15208_9_AMTGSTPCSSMSNHTK (UniProt Q15208) | 0.2 | -0.495 |
| SUGP2_Q8IX01_970_VCLIQEPK (UniProt Q8IX01) | 0.0982 | 0.00319 |
| SUGT1_Q9Y2Z0_54_AYCHILLGNYCVAVADAKK (UniProt Q9Y2Z0) | -0.16 | -0.0849 |
| STIP1_P31948_471_CMMAQYNR (UniProt P31948) | -0.155 | -0.0349 |
| SRPRB_Q9Y5M8_100_DTQTSITDSCAVYR (UniProt Q9Y5M8) | 0.0527 | 0.136 |
| STK24_Q9Y6E0_375_RPFSQCLSTIISPLFAELK (UniProt Q9Y6E0) | -0.0184 | -0.314 |
| STX4_Q12846_141_CNSMQSEYR (UniProt Q12846) | -0.164 | -0.155 |
| STAM2_O75886_85_IFHLEVCSR (UniProt O75886) | 0.0446 | 0.173 |
| STAG2_Q8N3U4_527_QESALIEIMLCTIR (UniProt Q8N3U4) | -0.31 | -0.336 |
| ST6GALNAC4_Q9H4F1_260_GRLDECQMYLAHEQAPR (UniProt Q9H4F1) | 0.222 | -0.154 |
| STRAP_Q9Y3F4_305_CVLPEEDSGELAK (UniProt Q9Y3F4) | 0.169 | 0.216 |
| STK11_Q15831_210_ISDLGVAEALHPFAADDTCR (UniProt Q15831) | 0.159 | 0.107 |
| SUPT6H_Q7KZ85_990_AIAHPYSQALIQYVCGLGPR (UniProt Q7KZ85) | -0.039 | 0.548 |
| SUPV3L1_Q8IYB8_587_KQPFVCSSLLQFAR (UniProt Q8IYB8) | -0.0532 | -0.127 |
| STAT2_P52630_529_LFGQNCR (UniProt P52630) | 0.088 | -0.00846 |
| SRRT_Q9BXP5_412_DAAGLECK (UniProt Q9BXP5) | 0.0907 | -0.0142 |
| STK17B_O94768_372_FRFDDSLPNPHELVSDLLC (UniProt O94768) | -0.162 | -0.0804 |
| STAG1_Q8WVM7_636_HVESDVLEACSK (UniProt Q8WVM7) | 0.014 | 0.0855 |
| SUZ12_Q15022_531_TPITHILVCRPK (UniProt Q15022) | -0.255 | -0.241 |
| STAT2_P52630_174_DQQDVFCFR (UniProt P52630) | 0.0891 | -0.00746 |

Another view of part of the listing above:
Target	probe-labelled cysteine peptide fold change (10 µM)	probe-labelled cysteine peptide fold change (50 µM)
SUPT6H_Q7KZ85_990_AIAHPYSQALIQYVCGLGPR (UniProt Q7KZ85)	-0.039	0.548
STAG1_Q8WVM7_636_HVESDVLEACSK (UniProt Q8WVM7)	0.014	0.0855

(further entries)

| Target | probe-labelled cysteine peptide fold change (10 µM) | probe-labelled cysteine peptide fold change (50 µM) |
| --- | --- | --- |
| STIP1_P31948_417+420_DCEECIQLEPTFIK (UniProt P31948) | 0.0585 | 0.489 |
| STX16_O14662_150_ACSEQEGR (UniProt O14662) | -0.0522 | 0.0155 |
| STX17_P56962_290_LTSSCPDLPSQTDKK (UniProt P56962) | -0.16 | -0.225 |
| SUCLA2_Q9P2R7_152+158_ICNQVLVCER (UniProt Q9P2R7) | 0.067 | 0.15 |
| STK10_O94804_947_LSEEAECPNPSTPSK (UniProt O94804) | -0.0762 | -0.392 |
| SRRT_Q9BXP5_412_DAAGLECKPRPLHK (UniProt Q9BXP5) | -0.0536 | -0.27 |
| SRRM2_Q9UQ35_1480_SECDSSPEPK (UniProt Q9UQ35) | -0.0751 | -0.0785 |
| STIP1_P31948_339_CQQAEK (UniProt P31948) | -0.0538 | 0.205 |
| STAT1_P42224_155_VMCIEHEIK (UniProt P42224) | -0.0877 | -0.0274 |
| SSRP1_Q08945_207_ELQCLTPR (UniProt Q08945) | 0.0671 | 0.0936 |
| STXBP2_Q15833_110_AAHIFFTDTCPEPLFSELGR (UniProt Q15833) | 0.121 | 0.0745 |
| STT3B_Q8TCJ2_715_AGSPTLLNCLMYK (UniProt Q8TCJ2) | 0.0198 | 0.0987 |
| STAT1_P42224_108_NLQDNFQEDPIQMSMIIYSCLK (UniProt P42224) | -0.0932 | 0.0436 |
| STAT3_P40763_687_YCRPESQEHPEADPGSAAPYLK (UniProt P40763) | 0.0338 | -0.195 |
| STX7_O15400_28_ITQCSVEIQR (UniProt O15400) | -0.0692 | 0.0818 |
| STAT3_P40763_542_LLGPGVNYSGCQITWAK (UniProt P40763) | -0.00986 | 0.0174 |
| STARD7_Q9NQZ5_362_KNEGSCGPAR (UniProt Q9NQZ5) | -0.12 | -0.224 |
| SUN2_Q9UH99_601_VILQPDVHPGNCWAFQGPQGFAVVR (UniProt Q9UH99) | 0.0666 | 0.174 |
